Test results taken from publication PMC9826595.

Molecular target: T1, Phaeodactylum tricornutum fucosyltransferase 1 (PtFucT1) (Phaeodactylum tricornutum) (UniProt B7G1M4)
T1 sequence: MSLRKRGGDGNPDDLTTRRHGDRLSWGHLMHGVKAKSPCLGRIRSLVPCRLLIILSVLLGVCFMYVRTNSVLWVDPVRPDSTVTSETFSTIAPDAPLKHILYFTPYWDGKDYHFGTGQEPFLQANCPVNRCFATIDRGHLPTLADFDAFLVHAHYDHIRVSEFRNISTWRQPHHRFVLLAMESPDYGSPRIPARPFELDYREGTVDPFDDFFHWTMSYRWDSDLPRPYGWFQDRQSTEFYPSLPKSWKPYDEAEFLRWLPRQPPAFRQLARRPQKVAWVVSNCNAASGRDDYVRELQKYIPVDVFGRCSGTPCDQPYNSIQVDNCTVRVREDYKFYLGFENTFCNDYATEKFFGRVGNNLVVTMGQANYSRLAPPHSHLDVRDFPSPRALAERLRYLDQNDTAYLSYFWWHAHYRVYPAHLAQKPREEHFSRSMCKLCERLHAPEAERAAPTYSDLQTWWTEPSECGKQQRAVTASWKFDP
Assay: two-hybrid; split-ubiquitin type yeast two-hybrid in strain NMY51; bait pBT3-N-PtFucT1, prey pPR3-N-PtGnTI; growth on DDO (SD/-Leu/-Trp), TDO (SD/-Leu/-Trp/-His) and QDO (SD/-Leu/-Trp/-His/-Ade) media

Phaeodactylum tricornutum N-acetylglucosaminyltransferase I (PtGnTI) (enzyme)
binding: binds

No constants are given. Whether binding was seen depends on the method and setting. Binding can be weak; no strength is given.
